Experimental data reported in US12023331B2 (priority 2018, dated 2024).
At least one structure is not confirmed: it was looked up by name or label, or the drawing left a doubt.

Tested on: 5-HT2 receptor
Assay: DOI-induced head twitch model in mice
Assay type: in vivo
Settings: p.o.

O=C1CN2c3c(cccc3[C@@H]3CN(CCCOc4ccc(F)cc4)CC[C@@H]32)N1 [Example 1, (6bR,10aS)-8-(3-(4-fluorophenoxy)propyl)-6b,7,8,9,10,10a-hexahydro-1H-pyrido[3′,4′:4,5]pyrrolo[1,2,3-de]quinoxalin-2(3H)-one]
block of DOI head twitch: potently block DOI head twitch
